Results on 16 compounds are retold here after PubChem BioAssay AID2685 (National Center for Advancing Translational Sciences (NCATS), 2010).

As a reminder, the AC50 is the concentration giving half of the maximal activity seen. A high value points to activity only at high concentration.

Molecules are shown by their SMILES. The list shows a part of the results. Further columns of the screen follow, without active or inactive calls. Most of these compounds were active or inconclusive in the main read-out, so they are no random draw. Words in brackets tell the shape of the fitted curve; partial curves, single points and poor fits give uncertain potencies.

The experiment can be described thus: qHTS Assay for Lipid Storage Modulators in Drosophila S3 Cells.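 On cell number change: cells counted by Cell Tracker Red CMTPX staining in the red channel.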 As to conditions: BODIPY lipid droplet fluorescence, 18-24 h; for cell number change: measured here: cell count max response, cells fed with added oleic acid. In outline: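 Drosophila S3 cells loaded with oleic acid (400 uM, as added) and compounds at several concentrations; lipid droplets imaged by 488-nm laser-scanning cytometry, 500–530 nm intensity and object ratio to cell channel. Percent activity normalized to 20 uM Triacsin C.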
For orientation: Quantitative high-throughput screening tests each substance at several concentrations.

[1] abbreviates: measured here: lipid fluorescence (Fed channel) AC50, cells fed with added oleic acid.
The mark [2] stands for this setting: measured here: cell number channel AC50, cells fed with added oleic acid.

On to `Cc1ccc(CN2CCN(CC(=O)NCCCN3CCN(c4ccc(F)cc4)CC3)C2=O)cc1`, for which the cell number change is -12.6%. In addition, under setting [1], the AC50 is 29.1 µM [falling, single point].

For `CCOc1cc(NC(=O)c2cccs2)c(OCC)cc1NC(=O)CCC(=O)NCC1CCCO1` (stereo not given), the AC50 under setting [1] is 0.00461 µM [falling, full curve, poor fit]. As to `Cc1ccc(-n2ncc3c(=O)[nH]c(SCC(=O)N4CCCCC4)nc32)cc1`, the concentration at half-maximal activity (AC50) was 0.231 µM [falling, full curve, poor fit] under setting [2] and 1.3 µM [falling, full curve] under setting [1]. Turning to `O=C(CSc1nnc(NC(=O)C2CCC2)s1)Nc1ccccc1`, the cell number change worked out at 40.8%.

`Cc1ccc(Nc2nc(CSc3nnc(-c4ccccc4)n3C)cs2)cc1`: the cell number change was determined as 30.4%. The AC50 under setting [2] is 23.1 µM [rising, single point]. Moreover, the AC50 under setting [1] is 16.4 µM [rising, partial curve, poor fit]. As to `CS(=O)(=O)N(CCc1ccccc1)CC(=O)N1CCCCC1`, the cell number change is -21.7%. Also, under setting [2], the AC50 was 0.461 µM [rising, single point]. Also, the concentration at half-maximal activity (AC50) under setting [1] was 4.11 µM [falling, full curve]. In the case of `C/[N+]([O-])=C\c1ccc([N+](=O)[O-])o1`, the AC50 under setting [1] was 1.64 µM [falling, partial curve, poor fit]. Consider `CC(=O)Nc1cccc(C(=O)NC2CCCc3c2cnn3-c2ccccc2F)c1` (stereo not given), for which the cell number change was determined as 0.763%. Besides, the half-maximal activity concentration (AC50) under setting [1] is 5.8 µM [falling, single point].

As for `COc1cccc(OC)c1C(=O)Nc1ccc(CN2CCCCC2)cc1`, the cell number change was found to be 11.3%. In addition, the AC50 under setting [1] was 29.1 µM [falling, single point]. For the compound `CCOC(=O)c1ccc(NC(=O)c2sc3nc4n(c(=O)c3c2C)CCC4)cc1`, the cell number change is -3.62%. The concentration at half-maximal activity (AC50) under setting [2] is 0.0651 µM [rising, full curve, poor fit]. In the case of `Brc1cccc(CN2CCCCCC2)c1`, the cell number change was found to be 7.72%. For the same compound, the AC50 under setting [1] was 29.1 µM [rising, single point]. On to `[N-]=[N+]=CC(=O)CCCN1C(=O)c2ccccc2C1=O`, for which the cell number change was found to be 22.4%. Moreover, the AC50 under setting [2] was 0.116 µM [rising, full curve, poor fit]. As for `COc1ccc(CC(=O)Nc2nc(C)cs2)cc1S(=O)(=O)N1CCOCC1`, the half-maximal activity concentration (AC50) reads like this: under setting [2], 0.58 µM [rising, single point]; under setting [1], 14.6 µM [falling, partial curve, poor fit]. As to `COc1ccc(NC(=O)c2c(Cl)nc3ccccn23)cc1`, the half-maximal activity concentration (AC50) under setting [2] was 0.092 µM [rising, single point]. With `CCc1ccc2c(c1)c(N=NC1=NC(=O)CS1)c(O)n2C`, the cell number change was -17.4%. In addition, the half-maximal activity concentration (AC50) under setting [1] was 7.31 µM [rising, partial curve].

As to `CC(C)(C)C1CCC(OCC(O)CN2CCN(Cc3ccccc3)CC2)CC1` (stereo not given), the cell number change was -25.5%. The half-maximal activity concentration (AC50) under setting [1] was 11.6 µM [falling, partial curve, poor fit].
